The list shows a part of the results.
Each sequence was assayed against OsWRKY34 (Oryza sativa, UniProt Q0JBA9 1-250) (assay: protein-binding microarray (RPBM); PBS, 2% BSA, 51.3 ng/ul salmon testes DNA, 50 uM zinc acetate, 200 nM TF, 25 C, 1 h; high values mean tight binding). Conditions: protein: recombinant; tags: N-terminal polyhistidine and DsRed monomer fusion (pET32a); label: CyDye5-dUTP incorporated in the synthesized complementary strand; 3' TTTTT single-stranded linker to array surface; dsDNA, one strand shown.
Summary of the method: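 An Axon 4000B scanner gave the binding signal as per-feature fluorescence intensity in arbitrary units. This followed washing of a custom Agilent array that had been incubated for 1 h at 25 °C with 200 nM protein in PBS, 2% BSA, salmon testes DNA and 50 µM zinc acetate. The proteins were transcription factors fused at the N-terminus to polyhistidine and DsRed, expressed in E. coli BL21-CodonPlus and purified on Ni–NTA.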

Chains of the proteins cited; added tags and fusions are not shown.
UniProt Q0JBA9, entry or part of it: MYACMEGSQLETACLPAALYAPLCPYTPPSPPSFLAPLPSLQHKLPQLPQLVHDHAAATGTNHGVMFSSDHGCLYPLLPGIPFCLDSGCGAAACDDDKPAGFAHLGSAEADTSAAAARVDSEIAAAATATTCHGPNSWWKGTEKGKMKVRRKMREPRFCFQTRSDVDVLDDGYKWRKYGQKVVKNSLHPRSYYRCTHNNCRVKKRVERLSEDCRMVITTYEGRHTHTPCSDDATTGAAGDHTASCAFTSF

Row | Sequence | binding signal
1 | TTTGAAGTCGCTTTTTCATCTGACACATACGGTTCGCTTCCGGAGTCACCTAGTGCAG | 8480 fluorescence intensity (a.u.)
2 | CCAGTCCACCACATACTACAGTGTCAGCGTACGCGTCGTACGGAGTCACCTAGTGCAG | 8330 fluorescence intensity (a.u.)
3 | TATTTGCATGGCTTTGACCATTTGAGGGTAGACATTTTTGCGGAGTCACCTAGTGCAG | 8980 fluorescence intensity (a.u.)
4 | ATGCGTTAATAGCCCATCTCGTTTTGCGTATCTTCTTAATCGGAGTCACCTAGTGCAG | 9540 fluorescence intensity (a.u.)
5 | TGTGCGTTCAATTTGATTTTCCTTCCAACATGTTTATTATCGGAGTCACCTAGTGCAG | 12200 fluorescence intensity (a.u.)
6 | GATGCTCACATGTCAGTGGTCAACGGCAGGCAAGCTGCTGCGGAGTCACCTAGTGCAG | 8810 fluorescence intensity (a.u.)
7 | GTGTGTGTGCATGTGCGTATAAGGCATGCTTAATTTATGTCGGAGTCACCTAGTGCAG | 9000 fluorescence intensity (a.u.)
8 | ATAGTTCGCTACTTTGCTTTTTTTTTATCTTTTTAAAATACGGAGTCACCTAGTGCAG | 11200 fluorescence intensity (a.u.)
9 | AGGCCAATCGCTTCACTCCCGTTAACTCACGATCCACTTCCGGAGTCACCTAGTGCAG | 8810 fluorescence intensity (a.u.)
10 | ATGCATTCATTTTTGTTTTTACTTTTATTATTTCTTTTGTCGGAGTCACCTAGTGCAG | 10000 fluorescence intensity (a.u.)
11 | ATTTAACTAGCGCTATACATTTTGTGTAATTTTACATACACGGAGTCACCTAGTGCAG | 8230 fluorescence intensity (a.u.)
12 | TTGATTCTGTTTTCGTGTCCGGGGTTTTCGATTCTGAAAACGGAGTCACCTAGTGCAG | 16100 fluorescence intensity (a.u.)
13 | CTTAGACCAACTCGGCCATCTCAACTTTTTGCTCTGTCATCGGAGTCACCTAGTGCAG | 9000 fluorescence intensity (a.u.)
14 | TTTGGCTTTTTCTAGCTAGTGCTCACCTCCAGCTATATATCGGAGTCACCTAGTGCAG | 9220 fluorescence intensity (a.u.)
15 | TGGCAGTTCGATCGATCTTATCTCGTTTTTCTTCTCCGAACGGAGTCACCTAGTGCAG | 8690 fluorescence intensity (a.u.)
16 | GGTGGGCATTATCCCAAAGAGAGAAAACAAGAAGTATCATCGGAGTCACCTAGTGCAG | 8230 fluorescence intensity (a.u.)
17 | TCAACACAGCAACGTTTCACTTTCATATCATCTGATTATTCGGAGTCACCTAGTGCAG | 8470 fluorescence intensity (a.u.)
18 | TCCACCCACGCCACATCGCTCCTTTGCCCTGCGCCGCCCACGGAGTCACCTAGTGCAG | 8900 fluorescence intensity (a.u.)
19 | TTGGTTTTAATCGGTTTTGCTCGGTAACCGTGGTCAGGGGCGGAGTCACCTAGTGCAG | 9700 fluorescence intensity (a.u.)
20 | AGATCCTGTCCATGTTCATCATCTACATGACTACAATACCCGGAGTCACCTAGTGCAG | 9430 fluorescence intensity (a.u.)
21 | AGTGGTTGGATAGATGTATTTGTCACGTTGATGTCTGGAGCGGAGTCACCTAGTGCAG | 10500 fluorescence intensity (a.u.)

Part of the list above in another layout:
Row	Sequence	binding signal
6	GATGCTCACATGTCAGTGGTCAACGGCAGGCAAGCTGCTGCGGAGTCACCTAGTGCAG	8810 fluorescence intensity (a.u.)
17	TCAACACAGCAACGTTTCACTTTCATATCATCTGATTATTCGGAGTCACCTAGTGCAG	8470 fluorescence intensity (a.u.)

Further records:

Row | Sequence | binding signal
22 | TCCTCCTCTTCGCCTCGTCTCTCTGCCCTGCCTCGTGCGCCGGAGTCACCTAGTGCAG | 8880 fluorescence intensity (a.u.)
23 | TATGTTATTTTGTATGTCTTGTATTGGTATCATATATTTACGGAGTCACCTAGTGCAG | 12100 fluorescence intensity (a.u.)
24 | AAATTTTAAGGCTGCATTTTGAGTGTCCCTTGTTGCTTTCCGGAGTCACCTAGTGCAG | 8190 fluorescence intensity (a.u.)
25 | GGGGTAATTCGTCCGGTTTGCATAGTTGGGGTGAAGAATGCGGAGTCACCTAGTGCAG | 15500 fluorescence intensity (a.u.)
26 | GTCGTCCTCGCCGCCGTCGCTCTCACCACCACCACACTATCGGAGTCACCTAGTGCAG | 10700 fluorescence intensity (a.u.)
27 | CCTTCGTCTCCGCTCGCCTCGCCGTCGCCGTACGTCGCCCCGGAGTCACCTAGTGCAG | 8410 fluorescence intensity (a.u.)
28 | AATTAATCATCAATCTCTCATTATCTCCTGTTTTCTTCTCCGGAGTCACCTAGTGCAG | 10500 fluorescence intensity (a.u.)
29 | GGGAAAAAGTAGCGGACCGCACCATCCGATTTCCGCGCCCCGGAGTCACCTAGTGCAG | 8300 fluorescence intensity (a.u.)
30 | CTCGTCCGTACCTGCCCCGCTTCTACCCAAGCGCCTTCCGCGGAGTCACCTAGTGCAG | 9040 fluorescence intensity (a.u.)
31 | TCGGAAATTTTCATATCATTTTCATCCTTCGTTACTGACACGGAGTCACCTAGTGCAG | 9850 fluorescence intensity (a.u.)
32 | GGACGGCGGCGTCCGGGGCCCGATCTCGGGGTGGGTGTGTCGGAGTCACCTAGTGCAG | 9510 fluorescence intensity (a.u.)
33 | ACCGCCGCGCGCGCCCTAAAACCCCAGCAACCAACCTCTCCGGAGTCACCTAGTGCAG | 9750 fluorescence intensity (a.u.)
34 | TCCTCAACTCCTCATCCATGCATCGCCTGTCAGCTCTATACGGAGTCACCTAGTGCAG | 9330 fluorescence intensity (a.u.)
35 | CCTGTGAATAAACTGCTTTTCACAATGACCTGTTTTACTCCGGAGTCACCTAGTGCAG | 8130 fluorescence intensity (a.u.)
36 | CGCTCCCATCGGCGCACGCGTCCACCCCGGCCGCTCTCCTCGGAGTCACCTAGTGCAG | 10100 fluorescence intensity (a.u.)
37 | GCCCTTCGAGAGGTTTGTTTCTGCTTCATTTGTCTCCACTCGGAGTCACCTAGTGCAG | 8700 fluorescence intensity (a.u.)
38 | TATGTAATTGTTATTTATGTGATCGCTTGTGTTGAAGGGGCGGAGTCACCTAGTGCAG | 10000 fluorescence intensity (a.u.)
39 | CGTTTCACGCTTTACCAGCCTGGCGCGTCGCGTCCGTCCACGGAGTCACCTAGTGCAG | 11000 fluorescence intensity (a.u.)
40 | ACTTCTACTCAATTACACCTCATCCTTGCATACAAACAAACGGAGTCACCTAGTGCAG | 8270 fluorescence intensity (a.u.)
41 | CATTTGTGTTCCCATTTGCCGCCTTCTCCTTCTTCTCCGACGGAGTCACCTAGTGCAG | 8170 fluorescence intensity (a.u.)
42 | CGTTTGCCGCTGCACTGCACTGTTGCCCTCGGCCGCTGGCCGGAGTCACCTAGTGCAG | 10800 fluorescence intensity (a.u.)
